Among the data in doi:10.1101/2025.07.20.665823 are binding values, retold here.

Sequences of proteins named here, by UniProt entry; tags and fusion partners are left off. Residues count along the entry.
UniProt Q9LX66, residues 25-830: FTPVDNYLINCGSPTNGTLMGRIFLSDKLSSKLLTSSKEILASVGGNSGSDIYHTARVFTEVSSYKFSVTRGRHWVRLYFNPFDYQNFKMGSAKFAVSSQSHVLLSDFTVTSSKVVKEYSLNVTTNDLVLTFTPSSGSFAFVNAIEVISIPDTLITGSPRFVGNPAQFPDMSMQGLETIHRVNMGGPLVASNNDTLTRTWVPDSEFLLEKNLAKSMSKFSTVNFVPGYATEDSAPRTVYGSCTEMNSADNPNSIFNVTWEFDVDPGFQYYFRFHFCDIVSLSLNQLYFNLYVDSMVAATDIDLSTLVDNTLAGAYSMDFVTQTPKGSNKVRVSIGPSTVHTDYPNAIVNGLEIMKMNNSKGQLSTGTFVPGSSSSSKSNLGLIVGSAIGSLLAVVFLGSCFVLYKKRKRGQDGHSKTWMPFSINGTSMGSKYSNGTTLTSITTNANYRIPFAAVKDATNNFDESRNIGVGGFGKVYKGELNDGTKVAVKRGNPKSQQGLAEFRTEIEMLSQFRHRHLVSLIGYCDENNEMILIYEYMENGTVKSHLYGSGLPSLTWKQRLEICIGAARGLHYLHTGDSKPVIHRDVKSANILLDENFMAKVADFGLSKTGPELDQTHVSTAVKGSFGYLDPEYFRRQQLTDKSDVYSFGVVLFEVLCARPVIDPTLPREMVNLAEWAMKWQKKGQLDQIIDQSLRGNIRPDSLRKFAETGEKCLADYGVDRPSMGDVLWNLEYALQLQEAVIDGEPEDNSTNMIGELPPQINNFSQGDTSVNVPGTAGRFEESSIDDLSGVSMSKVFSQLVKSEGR

These are yes or no findings as the source states them, for the method shown. In cells and extracts the contact can be indirect. These calls come from enrichment with a bait or labelling near it, and not all partners need be listed. Where a sequence is shown, tags or fusion partners need not be part of it.

The target in test [1] is T1, ERECTA-HA-TbID fusion protein (Arabidopsis thaliana) (UniProt Q42371).
T1 sequence: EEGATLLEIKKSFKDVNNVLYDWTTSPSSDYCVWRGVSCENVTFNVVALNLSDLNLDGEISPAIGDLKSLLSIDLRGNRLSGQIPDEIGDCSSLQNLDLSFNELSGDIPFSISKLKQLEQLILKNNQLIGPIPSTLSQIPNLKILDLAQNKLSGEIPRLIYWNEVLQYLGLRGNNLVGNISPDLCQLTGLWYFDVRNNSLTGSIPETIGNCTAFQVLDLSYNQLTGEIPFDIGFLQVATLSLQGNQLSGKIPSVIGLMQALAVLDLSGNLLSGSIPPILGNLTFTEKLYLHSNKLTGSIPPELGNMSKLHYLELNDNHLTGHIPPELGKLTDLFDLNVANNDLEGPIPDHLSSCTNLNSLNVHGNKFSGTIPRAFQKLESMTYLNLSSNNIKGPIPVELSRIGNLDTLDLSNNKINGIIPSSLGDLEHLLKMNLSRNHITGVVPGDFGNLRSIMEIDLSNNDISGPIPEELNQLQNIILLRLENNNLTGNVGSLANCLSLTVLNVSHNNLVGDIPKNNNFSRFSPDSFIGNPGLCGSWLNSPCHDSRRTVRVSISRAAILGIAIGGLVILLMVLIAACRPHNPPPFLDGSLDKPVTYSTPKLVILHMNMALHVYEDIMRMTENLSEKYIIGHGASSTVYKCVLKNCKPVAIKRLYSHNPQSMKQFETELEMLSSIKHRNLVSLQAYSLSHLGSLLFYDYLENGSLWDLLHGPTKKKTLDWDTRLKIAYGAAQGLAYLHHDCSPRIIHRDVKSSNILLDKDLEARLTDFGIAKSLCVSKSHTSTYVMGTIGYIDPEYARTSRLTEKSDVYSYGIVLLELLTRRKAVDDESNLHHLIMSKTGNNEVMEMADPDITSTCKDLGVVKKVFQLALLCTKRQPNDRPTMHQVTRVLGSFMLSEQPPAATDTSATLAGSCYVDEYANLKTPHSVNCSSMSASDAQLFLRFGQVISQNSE
As to the kind of experiment: proximity labelling; membrane TbID-PL: microsomal fractionation of ERECTA-HA-TbID seedlings, microsomal vs cytosolic fractions; LC-MS.

For test [2], the target named is T1, ERECTA-HA-TbID fusion protein (Arabidopsis thaliana). The experiment in a line: proximity labelling; optimized TbID-PL: ERECTA-HA-TbID seedlings with exogenous biotin (1 hour) compared with mock treated control (without biotin, 1 hour); LC-MS.
Test [3] shares this target. As to the kind of experiment: proximity labelling; TbID-PL: ERECTA-HA-TbID seedlings, 50 μM biotin 1 hr at room temperature; biotinylated proteins on streptavidin magnetic beads; LC-MS; ERECTA-HA-TbID vs er-105.
For test [4] the target is unchanged. As to the kind of experiment: affinity purification with mass spectrometry; ET-AP: lysate of five-day-old ERECTA-HA-TbID seedlings (1 % Triton X-100 lysis buffer) on anti-HA magnetic beads, 4 °C, 18 hrs; LC-MS; compared with er-105.

Consider “BRASSINOSTEROID-… KINASE 1 (from UniProt Q944A7 1-512) (enzyme)”, for which the binding entry in test [1] is listed as “binds”.

With “HERK1 (from UniProt Q9LX66 25-830) (receptor)”, the binding entry in test [1], in test [2] and in test [3] was “binds” in each case.

LIK1 (receptor): the binding entry in test [1], in test [2] and in test [3] was “binds” throughout.

For PICALM3 (endogenous), the binding result in test [3] is recorded as “binds”.

PICALM4A (endogenous): the binding entry in test [1], in test [2] and in test [3] was “binds” in each case.

In the case of PICALM4B (endogenous), the binding result in test [1], in test [2] and in test [3] was “binds” in each case.

YODA (enzyme): the binding result in test [2] is on record as “binds”.

B1: BRI1-ASSOCIATED KINASE1/SOMATIC EMBRYOGENESIS RECEPTOR KINASE3 (receptor, UniProt Q94F62 26-615)
chain: NAEGDALSALKNSLADPNKVLQSWDATLVTPCTWFHVTCNSDNSVTRVDLGNANLSGQLVMQLGQLPNLQYLELYSNNITGTIPEQLGNLTELVSLDLYLNNLSGPIPSTLGRLKKLRFLRLNNNSLSGEIPRSLTAVLTLQVLDLSNNPLTGDIPVNGSFSLFTPISFANTKLTPLPASPPPPISPTPPSPAGSNRITGAIAGGVAAGAALLFAVPAIALAWWRRKKPQDHFFDVPAEEDPEVHLGQLKRFSLRELQVASDNFSNKNILGRGGFGKVYKGRLADGTLVAVKRLKEERTQGGELQFQTEVEMISMAVHRNLLRLRGFCMTPTERLLVYPYMANGSVASCLRERPESQPPLDWPKRQRIALGSARGLAYLHDHCDPKIIHRDVKAANILLDEEFEAVVGDFGLAKLMDYKDTHVTTAVRGTIGHIAPEYLSTGKSSEKTDVFGYGVMLLELITGQRAFDLARLANDDDVMLLDWVKGLLKEKKLEALVDVDLQGNYKDEEVEQLIQVALLCTQSSPMERPKMSEVVRMLEGDGLAERWEEWQKEEMFRQDFNYPTHHPAVSGWIIGDSTSQIENEYPSGPR
For B1, the binding entry in test [2] is listed as “binds”.

B2: auxin efflux transporter PIN3 (protein, UniProt Q9S7Z8 1-640)
chain: MISWHDLYTVLTAVIPLYVAMILAYGSVRWWKIFSPDQCSGINRFVAIFAVPLLSFHFISTNNPYAMNLRFIAADTLQKIIMLSLLVLWANFTRSGSLEWSITIFSLSTLPNTLVMGIPLLIAMYGEYSGSLMVQIVVLQCIIWYTLLLFLFEFRGAKMLIMEQFPETAASIVSFKVESDVVSLDGHDFLETDAEIGDDGKLHVTVRKSNASRRSFCGPNMTPRPSNLTGAEIYSLSTTPRGSNFNHSDFYNMMGFPGGRLSNFGPADMYSVQSSRGPTPRPSNFEENCAMASSPRFGYYPGGGAGSYPAPNPEFSSTTTSTANKSVNKNPKDVNTNQQTTLPTGGKSNSHDAKELHMFVWSSNGSPVSDRAGLNVFGGAPDNDQGGRSDQGAKEIRMLVPDQSHNGETKAVAHPASGDFGGEQQFSFAGKEEEAERPKDAENGLNKLAPNSTAALQSKTGLGGAEASQRKNMPPASVMTRLILIMVWRKLIRNPNTYSSLIGLIWALVAFRWHVAMPKIIQQSISILSDAGLGMAMFSLGLFMALQPKLIACGNSVATFAMAVRFLTGPAVMAVAAIAIGLRGDLLRVAIVQAALPQGIVPFVFAKEYNVHPAILSTGVIFGMLIALPITLVYYILLGL
For B2, the binding entry in test [4] and in test [3] was “binds” throughout.

B3: auxin efflux transporter PIN7 (protein, UniProt Q940Y5 1-619)
chain: MITWHDLYTVLTAVIPLYVAMILAYGSVRWWKIFSPDQCSGINRFVAIFAVPLLSFHFISSNNPYAMNLRFIAADTLQKLIMLTLLIIWANFTRSGSLEWSITIFSLSTLPNTLVMGIPLLIAMYGEYSGSLMVQIVVLQCIIWYTLLLFLFEYRGAKILIMEQFPETGASIVSFKVESDVVSLDGHDFLETDAQIGDDGKLHVTVRKSNASRRSFYGGGGTNMTPRPSNLTGAEIYSLNTTPRGSNFNHSDFYSMMGFPGGRLSNFGPADMYSVQSSRGPTPRPSNFEESCAMASSPRFGYYPGGAPGSYPAPNPEFSTGNKTGSKAPKENHHHVGKSNSNDAKELHMFVWGSNGSPVSDRAGLQVDNGANEQVGKSDQGGAKEIRMLISDHTQNGENKAGPMNGDYGGEEESERVKEVPNGLHKLRCNSTAELNPKEAIETGETVPVKHMPPASVMTRLILIMVWRKLIRNPNTYSSLIGLIWALVAFRWDVAMPKIIQQSISILSDAGLGMAMFSLGLFMALQPKLIACGNSTATFAMAVRFFTGPAVMAVAAMAIGLRGDLLRVAIVQAALPQGIVPFVFAKEYNVHPAILSTGVIFGMLIALPITLVYYILLGL
As to B3, the binding entry in test [4] and in test [3] was “binds” each time.

B4: TOO MANY MOUTHS (receptor, UniProt Q9SSD1 24-496)
chain: FTVITSDSTAPSALIDGPQTGFTMTNDGARTEPDEQDAVYDIMRATGNDWAAAIPDVCRGRWHGIECMPDQDNVYHVVSLSFGALSDDTAFPTCDPQRSYVSESLTRLKHLKALFFYRCLGRAPQRIPAFLGRLGSSLQTLVLRENGFLGPIPDELGNLTNLKVLDLHKNHLNGSIPLSFNRFSGLRSLDLSGNRLTGSIPGFVLPALSVLDLNQNLLTGPVPPTLTSCGSLIKIDLSRNRVTGPIPESINRLNQLVLLDLSYNRLSGPFPSSLQGLNSLQALMLKGNTKFSTTIPENAFKGLKNLMILVLSNTNIQGSIPKSLTRLNSLRVLHLEGNNLTGEIPLEFRDVKHLSELRLNDNSLTGPVPFERDTVWRMRRKLRLYNNAGLCVNRDSDLDDAFGSKSGSTVRLCDAETSRPAPSGTVQHLSREEDGALPDGATDVSSTSKSLGFSYLSAFFLVFPNFIFMLISS
As to B4, in test [4], the binding entry is reported as “binds”.

B5: HAESA-LIKE1 (receptor, UniProt Q9SGP2 16-996)
chain: LNQDGFILQQVKLSLDDPDSYLSSWNSNDASPCRWSGVSCAGDFSSVTSVDLSSANLAGPFPSVICRLSNLAHLSLYNNSINSTLPLNIAACKSLQTLDLSQNLLTGELPQTLADIPTLVHLDLTGNNFSGDIPASFGKFENLEVLSLVYNLLDGTIPPFLGNISTLKMLNLSYNPFSPSRIPPEFGNLTNLEVMWLTECHLVGQIPDSLGQLSKLVDLDLALNDLVGHIPPSLGGLTNVVQIELYNNSLTGEIPPELGNLKSLRLLDASMNQLTGKIPDELCRVPLESLNLYENNLEGELPASIALSPNLYEIRIFGNRLTGGLPKDLGLNSPLRWLDVSENEFSGDLPADLCAKGELEELLIIHNSFSGVIPESLADCRSLTRIRLAYNRFSGSVPTGFWGLPHVNLLELVNNSFSGEISKSIGGASNLSLLILSNNEFTGSLPEEIGSLDNLNQLSASGNKFSGSLPDSLMSLGELGTLDLHGNQFSGELTSGIKSWKKLNELNLADNEFTGKIPDEIGSLSVLNYLDLSGNMFSGKIPVSLQSLKLNQLNLSYNRLSGDLPPSLAKDMYKNSFIGNPGLCGDIKGLCGSENEAKKRGYVWLLRSIFVLAAMVLLAGVAWFYFKYRTFKKARAMERSKWTLMSFHKLGFSEHEILESLDEDNVIGAGASGKVYKVVLTNGETVAVKRLWTGSVKETGDCDPEKGYKPGVQDEAFEAEVETLGKIRHKNIVKLWCCCSTRDCKLLVYEYMPNGSLGDLLHSSKGGMLGWQTRFKIILDAAEGLSYLHHDSVPPIVHRDIKSNNILIDGDYGARVADFGVAKAVDLTGKAPKSMSVIAGSCGYIAPEYAYTLRVNEKSDIYSFGVVILEIVTRKRPVDPELGEKDLVKWVCSTLDQKGIEHVIDPKLDSCFKEEISKILNVGLLCTSPLPINRPSMRRVVKMLQEIGGGDEDSLHKIRDDKDGKLTPYYNEDTSDQGSIA
Regarding B5, in test [1], the binding entry is “binds”.

B6: ANGUSTIFOLIA (protein, UniProt O23702 1-636)
chain: MSKIRSSATMPHRDQPSPASPHVVTLNCIEDCALEQDSLAGVAGVEYVPLSRIADGKIESATAVLLHSLAYLPRAAQRRLRPHQLILCLGSADRAVDSTLAADLGLRLVHVDTSRAEEIADTVMALILGLLRRTHLLSRHALSASGWLGSLQPLCRGMRRCRGMVLGIVGRSVSARYLASRSLAFKMSVLYFDVPEGDEERIRPSRFPRAARRMDTLNDLLAASDVISLHCALTNDTVQILNAECLQHIKPGAFLVNTGSCQLLDDCAVKQLLIDGTIAGCALDGAEGPQWMEAWVKEMPNVLILPRSADYSEEVWMEIREKAISILHSFFLDGVIPSNTVSDEEVEESEASEEEEQSPSKHEKLAIVESTSRQQGESTLTSTEIVRREASELKESLSPGQQHVSQNTAVKPEGRRSRSGKKAKKRHSQQKYMQKTDGSSGLNEESTSRRDDIAMSDTEEVLSSSSRCASPEDSRSRKTPLEVMQESSPNQLVMSSKKFIGKSSELLKDGYVVALYAKDLSGLHVSRQRTKNGGWFLDTLSNVSKRDPAAQFIIAYRNKDTVGLRSFAAGGKLLQINRRMEFVFASHSFDVWESWSLEGSLDECRLVNCRNSSAVLDVRVEILAMVGDDGITRWID
B6: the binding entry in test [1], in test [2] and in test [3] was “binds” throughout.
